The supplement of paper PMC12823440, “Inhibitors supercharge kinase turnover through native proteolytic circuits” (Nature, 2025)
Structures can show the parent of a compound that is named as a salt. Some of the results follow. Hit calls seldom repeat between salt and free forms of one compound.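 In K562 cells expressing nanoluciferase-fused kinases, luminescence was recorded at 4 h intervals between 2 and 18 h, normalized as percent of control with DMSO at 100% and a positive control at 0%. A significant (2 sigma) signal drop marks a time point as decreased. The authors' rule for a hit is not shown and takes in more than the number of time points.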

target: SRC (UniProt P12931); assay: number of time points (of 5) at which kinase-Nluc abundance scored as decreased, DMSO-normalised (count); higher = more persistent destabilization; details: K562; 2-18 h

SMILES	number of time points
Cn1cc(-c2cc(Oc3cc(F)c(NC(=O)C4(C(=O)Nc5ccccc5)CC4)cc3F)ccn2)cn1 (2.5 µM)	0
Nc1[nH]nc2nc(-c3ccc(NS(=O)(=O)c4cc(Cl)ccc4Cl)cc3)cnc12 (10 µM)	0
Cc1cccc(/C=N/Nc2cc(N3CCOCC3)n3nc(-c4ccncc4)cc3n2)c1 (10 µM)	0
CC(C)n1ncnc1-c1cn2c(n1)-c1ccc(O[C@@H](C)C(N)=O)cc1OCC2 (10 µM)	0
COC(=O)[C@H](CCSC)NC(=O)c1ccc(NC[C@@H](N)CS)cc1-c1ccccc1 [FTI-277 (hydrochloride)] (10 µM)	0
O=C(Nc1cccc(-c2nc(-c3ccc(NC(=O)c4cccnc4)cc3Cl)no2)c1)Nc1ccc(NC(=O)C2CC2)c(C(F)(F)F)c1 (2.5 µM)	0
CN1CCN(c2cc(-c3ccncc3)c(-c3ccc4ccccc4c3)nn2)CC1 (10 µM)	0
CNC(=O)c1ccc2c(c1)ncn2-c1ccc(CC(=O)OC(C)(C)C)cc1 (10 µM)	0
O=C(O)[C@H]1O[C@@H](Oc2cc3oc(-c4ccc(O)cc4)cc(=O)c3c(O)c2O)[C@H](O)[C@@H](O)[C@@H]1O [Scutellarin] (10 µM)	0
Cc1nn(C)cc1-c1nc2c(N3CCN(Cc4ccc(Cl)cc4)CC3)c(Cl)cnc2[nH]1 (10 µM)	0
Cc1cc(CSc2ccccc2C(=O)NCCNc2ccc(C(F)(F)F)cc2[N+](=O)[O-])on1 (10 µM)	0
NC(=O)c1cnc(-c2ccc(C3(N)CCC3)cc2)c(-c2ccccc2)c1 (10 µM)	0
CCCCCC(=O)N[C@@H](Cc1ccc(O)cc1)C(=O)OC (10 µM)	0
CNC(=O)c1ccc2c(C(=Nc3cccc(CN(C)C)c3)c3ccccc3)c(O)[nH]c2c1 [MEK inhibitor] (10 µM)	0
COc1cc2ncnc(Nc3cccc(I)c3)c2cc1OC (2.5 µM)	0
COc1c(O)cc2oc(-c3ccc(O)cc3)cc(=O)c2c1O [Hispidulin] (10 µM)	0
CC(C)=CC[C@@H](O)C1=CC(=O)c2c(O)ccc(O)c2C1=O [Shikonin] (10 µM)	0
N[C@@H]1CCCN(c2c(/C=C3\SC(=O)NC3=O)cccc2-c2ccccc2)C1 (10 µM)	0
NC(=O)c1ccc(N(C(N)=O)c2c(F)cccc2F)nc1-c1ccc(F)cc1F (10 µM)	0

In another format: 3 of the compounds above
O=C(O)[C@H]1O[C@@H](Oc2cc3oc(-c4ccc(O)cc4)cc(=O)c3c(O)c2O)[C@H](O)[C@@H](O)[C@@H]1O [Scutellarin] (10 µM)
  number of time points: 0
COc1cc2ncnc(Nc3cccc(I)c3)c2cc1OC (2.5 µM)
  number of time points: 0
NC(=O)c1ccc(N(C(N)=O)c2c(F)cccc2F)nc1-c1ccc(F)cc1F (10 µM)
  number of time points: 0

Further structures.

SMILES	number of time points
NC1(C(=O)NCCCn2cc(-c3ccc(OC(F)(F)F)cc3)c3cc(CN4CCN(Cc5c(Cl)cccc5Cl)CC4)ccc32)CCNCC1 (2.5 µM)	0
Cc1cc(O)c2c(c1)C(=O)c1cccc(O)c1C2=O [Chrysophanol] (2 µM)	0
COc1cc2nccc(Oc3ccc(NC(=O)c4cn(C(C)C)c(=O)n(-c5ccc(F)cc5)c4=O)cc3F)c2cc1OC (0.5 µM)	0
O=C(Nc1cccnc1)c1cc(-c2ccnc(F)c2)ccc1OCc1ccccc1 (10 µM)	0
NC[C@@](O)(c1ccc(Cl)cc1)c1ccc(-c2cn[nH]c2)cc1 (10 µM)	0
O=C1NC(=O)/C(=C\c2c[nH]c(=O)c(-c3ccc(N4CCNCC4)nc3)c2)S1 [Protein kinase inhibitors 1 hydrochloride] (10 µM)	0
C[C@@H](Nc1ncnc2[nH]c(-c3ccc(O)cc3)cc12)c1ccccc1 (2.5 µM)	0
Cc1ccc(C(=O)NC2CC2)cc1-n1ncc(C(=O)c2cccc(C#N)c2)c1N [Acumapimod] (10 µM)	0
C[C@H]1O[C@@H](O[C@H]2CC[C@@]3(C)[C@@H](CC[C@]4(C)[C@@H]3C=C[C@]35OC[C@@]6(CCC(C)(C)C[C@H]63)[C@H](O)C[C@]54C)[C@]2(C)CO)[C@H](O)[C@@H](O[C@@H]2O[C@H](CO)[C@@H](O)[C@H](O)[C@H]2O)[C@H]1O [Saikosaponin D] (2.5 µM)	0
N#Cc1ccc(-c2cnc3[nH]cc(NC(=O)c4cccnc4)c3c2)cc1 (10 µM)	0
CCCCCc1ccc(/C=C/[C@H](O)[C@@H](CO)NC)cc1 [SK1-I (hydrochloride)] (10 µM)	0
COc1ccc2c3n(c(=NC(=O)c4cccnc4)nc2c1OC)CCN3 (2 µM)	0
CN1CCN(c2ccc(Nc3ncc4cc(C#N)c(=O)n(C5CCCC5)c4n3)cc2)CC1 (10 µM)	0
COc1ccc(S(=O)(=O)Nc2cc(-c3c(O)ccc4ccccc34)c(O)c3ccccc23)cc1 (10 µM)	0
CC(C)(C)Cc1[nH]nc2c1[C@@](C)(c1ccccc1)C1=C(CC(C)(C)CC1=O)N2 (10 µM)	0
Cn1c2cc([S+](C)[O-])sc2c2cnn(Cc3cccc(N)c3)c(=O)c21 (stereo not drawn) (2.5 µM)	0
Nc1ncc(-c2ccnc(Nc3ccncc3)n2)c(CC2CC2)n1 (10 µM)	0
O=C(NCCN1CCOCC1)Nc1nc2ccc(Sc3nnc4ccc(-c5ccc(F)cc5)nn34)cc2s1 (10 µM)	0
CC(C)Oc1ccc(F)c(-c2cnc(N)c(C(=O)Nc3cnccc3N3CCC[C@@H](C(=O)O)C3)n2)c1 (2 µM)	0
